In all, about 320,000 compounds went through this assay and about 22,000 (6.9%) were called active. The inconclusive results got no clear call from the source; some entries with a clear call stand among them for comparison. Calls come from the whole dose curve; as a rule, active = well fitted inhibition curve with a large enough effect; inconclusive = small, poorly fitted or top-dose-only effect, or another doubt; inactive = no such curve, though single readings can be large or run the other way. Where the call is inconclusive, the potency comes from a doubtful curve fit.
Assay: Primary qHTS for delayed death inhibitors of the malarial parasite plastid, 96 hour incubation
Settings: P. falciparum luciferase reporter growth; series mostly up to 28.7 µM
Summary of the method: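 Delayed-death screen, second-generation endpoint: infected erythrocytes, 2% hematocrit, 0.05% parasitemia final; 96 hours at 37 C, 5% CO2; luciferase detection reagent; luminescence decrease equals reduced growth.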
Potency is the fitted concentration of half-maximal effect.

Q: With `O=C(CN(Cc1ccccc1)S(=O)(=O)c1cccc(C(F)(F)F)c1)NC1CCCCC1` as the compound, how does the Potency read?
A: inconclusive: 11.7 µM [inhibitor, single point]

Q: With `COc1ccc(C2(c3ccc(OC)cc3)NC(=O)N(CC(=O)NC3(C#N)CCCCC3)C2=O)cc1` as the compound, how does the Potency read?
A: inconclusive: 2.62 µM [inhibitor, partial curve, poor fit]

Q: For `Cc1ccc(S(=O)(=O)N(CC(=O)N2CCc3ccccc3C2)c2ccc(Cl)c(Cl)c2)cc1`, which Potency is on record?
A: inconclusive: 3.29 µM [inhibitor, single point]

Q: For `CCOc1cc(S(=O)(=O)NC2CC2)c(OCC)cc1-n1cnnn1`, which Potency is on record?
A: inconclusive: 4.65 µM [inhibitor, partial curve]

Q: With `Cc1cccc(NC(=O)CSc2nnc(-c3cc(C)[nH]n3)n2N)c1` as the compound, how does the Potency read?
A: inconclusive: 11.7 µM [inhibitor, partial curve, poor fit]

Q: For `COc1cccc(NC(=O)CSc2ccc3nnc(-c4cccnc4)n3n2)c1`, which Potency is on record?
A: inconclusive: 9.28 µM [inhibitor, partial curve, poor fit]

Q: Which Potency does the source give for `O=C(O)c1nccnc1C(=O)N1CCN(c2ccccc2)CC1` here?
A: inactive

Q: Which Potency does the source give for `C=CCNC(=O)CC(=O)N/N=C/c1cccs1` here?
A: inconclusive: 18.5 µM [inhibitor, single point]

Q: With `CCc1cc(=O)oc2cc(C)cc(OCC(=O)NCCc3c[nH]c4ccccc34)c12` as the compound, how does the Potency read?
A: active: 2.62 µM

Q: With `Clc1ccc2[nH]c3c(N4CCC5(CC4)OCCO5)ncnc3c2c1` as the compound, how does the Potency read?
A: inconclusive: 5.22 µM [inhibitor, partial curve, poor fit]

Q: With `CC1(C)OC(=O)C(=NNc2ccccc2C(=O)O)C(=O)O1` as the compound, how does the Potency read?
A: inconclusive: 4.15 µM [inhibitor, single point]

Q: With `COc1ccc(Cc2nc(-c3ccc(Br)cc3)no2)cc1` as the compound, how does the Potency read?
A: inactive

Q: With `CC(=O)Nc1ccc(N2C(=O)C3C4C=CC(CC4)C3C2=O)cc1` (centres undefined) as the compound, how does the Potency read?
A: inactive

Q: Which Potency does the source give for `COC(=O)[C@]1(C)N[C@H](c2ccc(-c3ccc(Cl)c(Cl)c3)cc2)[C@@H]2C(=O)N(C)C(=O)[C@@H]21` here?
A: inconclusive: 18.5 µM [inhibitor, single point]

Q: Which Potency does the source give for `COc1cccc(NC(=O)c2cc3ccccc3o/c2=N\O)c1` here?
A: inconclusive: 18.5 µM [inhibitor, single point]

Q: Which Potency does the source give for `Cc1[nH]cnc1CSCc1ccc(Cl)cc1` here?
A: inconclusive: 13.1 µM [inhibitor, partial curve, poor fit]

Q: For `COc1ccc(N(C)C(=O)c2cc3c(s2)-c2ccccc2S(=O)(=O)C3)cc1`, which Potency is on record?
A: inconclusive: 1.65 µM [inhibitor, full curve, poor fit]

Q: Which Potency does the source give for `CC(=O)Nc1ccc(OCC(=O)NCc2ccc3c(c2)OCO3)cc1` here?
A: inactive

Q: With `Cc1cccnc1N(C(=O)Nc1ccccc1)C1=NCC(C)(C)S1` as the compound, how does the Potency read?
A: inactive

Q: For `Cc1ccc(Cn2cc(C(=O)NN)c(=O)c3ccc(F)cc32)cc1`, which Potency is on record?
A: inconclusive: 11.7 µM [inhibitor, single point]

Q: Which Potency does the source give for `COc1ccc(-n2c(=O)c3c4c(sc3n(CC(=O)NCc3ccco3)c2=O)CCC4)c(OC)c1` here?
A: inactive

Q: Which Potency does the source give for `COc1cc(OC)c(OC)cc1CNC(=O)c1cccc(S(=O)(=O)N2CCc3ccccc3C2)c1` here?
A: inconclusive: 10.4 µM [inhibitor, partial curve, poor fit]

Q: For `Cn1c(=O)c2cc(S(=O)(=O)Nc3cccc(F)c3)ccc2n(C)c1=O`, which Potency is on record?
A: active: 14.7 µM

Q: For `COC(=O)c1ccccc1N1C(=O)C2C(C1=O)C1C=CC2C12CC2` (centres undefined), which Potency is on record?
A: inconclusive: 13.1 µM [inhibitor, single point]

Q: With `Cc1cc(N2CCN(S(=O)(=O)c3ccccc3)CC2)nc2c(C)cccc12` as the compound, how does the Potency read?
A: active: 13.1 µM

Q: Which Potency does the source give for `O=C1CCCN1CC1CCN(Cc2nc(CC3CC3)no2)CC1` here?
A: inconclusive: 18.5 µM [inhibitor, single point]

Q: With `CC1(c2ccc(OC(F)F)cc2)NC(=O)N(CC(=O)Nc2ccc3[nH]c(=O)[nH]c3c2)C1=O` (centres undefined) as the compound, how does the Potency read?
A: inconclusive: 14.7 µM [inhibitor, single point]

Q: Which Potency does the source give for `CCc1ccccc1Nc1nc(N)nc(COC(=O)CCC(=O)c2ccc(F)cc2)n1` here?
A: inconclusive: 1.47 µM [inhibitor, full curve]

Q: Which Potency does the source give for `Clc1ccc(-c2c[n+](Cc3ccc(Cl)cc3Cl)c3n2CCCCC3)cc1` here?
A: active: 0.165 µM

Q: For `CN(C)CCCN(C(=O)c1ccc2ccccc2c1)c1nc2cc3c(cc2s1)OCO3`, which Potency is on record?
A: active: 10.4 µM

Q: With `O=C(/C=C/c1ccc(Cl)cc1)N1CCN(c2ncccn2)CC1` as the compound, how does the Potency read?
A: inactive

Q: With `CC(=O)OCC(=O)[C@@]1(O)CCC2C3C[C@H](C)C4=CC(=O)C=CC4(C)C3C(O)CC21C` (some centres undefined) as the compound, how does the Potency read?
A: inactive

Q: Which Potency does the source give for `CCOc1ccccc1NC(=O)C(OC(=O)c1ccc(NC(=O)CC#N)cc1)c1ccccc1` (centres undefined) here?
A: active: 2.33 µM

Q: For `OCCCNc1nccc(-c2cc(Nc3cccc(Cl)c3)ncn2)n1`, which Potency is on record?
A: inconclusive: 9.28 µM [inhibitor, partial curve, poor fit]

Q: For `Cn1c(O)c(N=Nc2ccc(S(=O)(=O)N3CCOCC3)cc2)c(=O)n(C)c1=O`, which Potency is on record?
A: inactive

Q: With `Cc1ccc2nc(C)c(C)nc2c1N` as the compound, how does the Potency read?
A: inconclusive: 20.8 µM [inhibitor, partial curve, poor fit]

Q: With `Cc1ccc(NC(=O)c2c([N+](=O)[O-])cnn2C)cc1C` as the compound, how does the Potency read?
A: inactive

Q: Which Potency does the source give for `Cc1onc(-c2ccccc2)c1C(=O)NCc1ccco1` here?
A: inconclusive: 0.928 µM [inhibitor, full curve, poor fit]

Q: For `COc1ccc(Cl)cc1NC(=S)NCCCN1CCCC1=O`, which Potency is on record?
A: inactive

Q: Which Potency does the source give for `O=C(CN(Cc1ccc(F)cc1)C(=O)CNS(=O)(=O)c1ccc(Cl)cc1)NCC1CCCO1` (centres undefined) here?
A: inconclusive: 10.4 µM [inhibitor, single point]

Q: Which Potency does the source give for `O=C(CN1CCN(C2CCCCC2)CC1)c1c[nH]c2ccccc12` here?
A: inconclusive: 14.7 µM [inhibitor, partial curve, poor fit]

Q: With `O=C(NC(=S)N1CCN(c2ccc(Cl)cc2[N+](=O)[O-])CC1)c1ccco1` as the compound, how does the Potency read?
A: inconclusive: 18.5 µM [inhibitor, single point]

Q: With `CN(CC(=O)Nc1ccc(Cl)c(C(F)(F)F)c1)C(=O)c1ccc(N2CCOCC2)c([N+](=O)[O-])c1` as the compound, how does the Potency read?
A: inactive

Q: For `CCOc1ccccc1Oc1c(C)oc2c(CN3CCN(CCO)CC3)c(O)ccc2c1=O`, which Potency is on record?
A: inconclusive: 4.15 µM [inhibitor, single point]

Q: For `CO[C@H]1[C@@H](O)CC(OC2[C@@H](O)CC(OC3[C@@H](O)C[C@H](OC4CC[C@@]5(C)C(CCC6C5CC(O)[C@]5(C)[C@H](C7=CC(=O)OC7)CCC65O)C4)O[C@@H]3C)O[C@@H]2C)O[C@@H]1C` (some centres undefined), which Potency is on record?
A: inconclusive: 8.49 µM [inhibitor, partial curve]

Q: For `COc1cccc(NC(=O)C/C(C)=N/NC(=O)C2CCCCC2)c1`, which Potency is on record?
A: inconclusive: 1.85 µM [inhibitor, partial curve]

Q: Which Potency does the source give for `O=C(CSc1nc2c(sc3ccccc32)c(=O)n1CCc1ccccc1)NCc1ccco1` here?
A: inconclusive: 8.28 µM [inhibitor, single point]

Q: Which Potency does the source give for `CCOc1cc2[nH]c(=O)n(CCCCCC(=O)NC3CCCC3)c(=O)c2cc1OCC` here?
A: active: 10.4 µM

Q: With `CCC(=O)Nc1ccc(C(=O)OCC(=O)c2cccs2)cc1` as the compound, how does the Potency read?
A: inactive

Q: For `OC(O)C(Cl)(Cl)Cl`, which Potency is on record?
A: inconclusive: 4.78 µM [inhibitor, partial curve]

Q: Which Potency does the source give for `COc1ccc(Nc2c3c(nc4c(-c5ccccc5)c(C)nn24)CCC3)cc1` here?
A: active: 5.86 µM

Q: For `CNc1ccc(Br)cc(C(=O)/C=C/c2cccc(Cl)c2Cl)c1=O`, which Potency is on record?
A: inconclusive: 9.28 µM [inhibitor, partial curve]

Q: Which Potency does the source give for `CSc1nc2ccccc2n1CC(=O)Nc1c(C)n(C)n(-c2ccccc2)c1=O` here?
A: active: 10.4 µM

Q: For `COc1ccc(CSc2nc3ccccc3c(=O)[nH]2)cc1F`, which Potency is on record?
A: inconclusive: 0.657 µM [inhibitor, partial curve, poor fit]

Q: Which Potency does the source give for `Cc1c(C(=O)NCC2CCCO2)cccc1[N+](=O)[O-]` (centres undefined) here?
A: inactive

Q: With `Cc1cc(C)n(/N=C/c2c[nH]c3ccccc23)c(=O)c1C#N` as the compound, how does the Potency read?
A: inactive

Q: Which Potency does the source give for `COc1ccc(Cn2ccnc2SCC(=O)Nc2ccccc2F)cc1` here?
A: inconclusive: 10.4 µM [inhibitor, single point]

Q: For `CCN(CC)C(NC(=O)c1ccccc1)C(=O)c1ccccc1` (centres undefined), which Potency is on record?
A: inactive

Q: Which Potency does the source give for `O=C(OCCN1CCCCC1)c1cccc(Cl)c1` here?
A: inactive

Q: With `CCOc1ccccc1CNS(=O)(=O)c1ccc(-c2cnc(C3CC3)o2)cc1` as the compound, how does the Potency read?
A: inconclusive: 18.5 µM [inhibitor, single point]

Q: With `COc1ccc(-n2c(C)nc3c(cnn3-c3ccc(C)cc3)c2=O)cc1` as the compound, how does the Potency read?
A: inactive

Q: For `O=C(CN1CCCCC1)N1CCN(C(=O)CN2CCCCC2)CC1`, which Potency is on record?
A: inconclusive: 14.7 µM [inhibitor, single point]

Q: With `CNCC(=O)NC(CCCN=C(N)N)C(=O)NC(C(=O)NC(Cc1ccc(O)cc1)C(=O)NC(C(=O)NC(Cc1cnc[nH]1)C(=O)N1CCCC1C(=O)NC(C)C(=O)O)C(C)C)C(C)C` (centres undefined) as the compound, how does the Potency read?
A: inactive

Q: With `COc1ccccc1C(O)(C(=O)NN(C(=O)c1ccccc1)c1ccccc1C)c1cccs1` (centres undefined) as the compound, how does the Potency read?
A: inactive

Q: For `O=C(c1cccc([N+](=O)[O-])c1)N1CCN(S(=O)(=O)/C=C/c2ccccc2)CC1`, which Potency is on record?
A: inconclusive: 18.5 µM [inhibitor, single point]

Q: For `CCn1cc(C=C2C(=O)N(C)C(=O)N(C)C2=O)c2ccccc21`, which Potency is on record?
A: active: 0.117 µM

Q: With `Cc1cccc(-n2c(C)cc(/C=N/NC(N)=S)c2C)c1` as the compound, how does the Potency read?
A: inconclusive: 13.1 µM [inhibitor, partial curve, poor fit]

Q: For `FC(F)(F)c1cccc(CN2CCC(c3cc(-c4cccs4)n[nH]3)CC2)c1`, which Potency is on record?
A: inactive

Q: For `Cc1ccsc1C(=O)OCC(=O)N(C)c1c(N)n(Cc2ccccc2)c(=O)[nH]c1=O`, which Potency is on record?
A: inactive

From PubChem BioAssay AID504834 (National Center for Advancing Translational Sciences (NCATS), 2011)
